Biological target: T1, human IL-4 receptor alpha chain (Interleukin-4 receptor subunit alpha, Uniprot #P24394, SEQ ID NO: 12) (human, UniProt P24394 26-232, limits assumed)
T1 construct: also called IL-4RA; human IL-4RA
T1 sequence: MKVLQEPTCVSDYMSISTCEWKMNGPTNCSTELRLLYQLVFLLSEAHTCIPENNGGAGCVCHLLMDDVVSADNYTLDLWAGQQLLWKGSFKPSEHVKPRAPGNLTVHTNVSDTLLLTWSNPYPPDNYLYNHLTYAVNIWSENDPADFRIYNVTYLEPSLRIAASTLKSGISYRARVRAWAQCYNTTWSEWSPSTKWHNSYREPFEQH
Assay: method not stated; target IL-4RA implied by the text

B1: lipocalin mutein directed against the human IL-4 receptor alpha chain (SEQ ID NO: 6) (designed binder)
chain: HHLLASDEEIQDVSGTWYLKAMTVDSRCPRAVYNSVTPMTLTTLEGGNLEAKFTAQRKGRWQKYKLVLEKTDEPGKYTASGGRHVAYIIRSHVKDHYIFHSEGLCPGQPVPGVWLVGRDPKNNLEALEDFEKAAGARGLSTESILIPRQSETSSPGSA
notes: Mutein of human tear lipocalin; also called IL-4 receptor alpha antagonist
B1 showed a Kd of 0.023 nM, a koff of 9.2e-05 s⁻¹ and a kon of 4.1e+06 M⁻¹ s⁻¹.
